The text below walks through data of publication PMC11242853, “The Antimicrobial Activity of Human Defensins at Physiological Non-Permeabilizing Concentrations Is Caused by the Inhibition of the Plasma Membrane H^+-ATPases” (International Journal of Molecular Sciences, 2024).

A short description of series [1]: Table 2 comparison of events associated with cell death pathways (literature and conclusions). The note with it: conclusion of this study, no reference given.
Details of series [2]: method as in 19 sources, ref 24; PMID 3290255; doi:10.1172/JCI113527; 24. Lehrer R.I. Ganz T. Szklarek D. Selsted M.E. Modulation of the in vitro candidacidal activity of human neutrophil defensins by target cell metabolism and divalent cations J. Clin. Invest. 1988 81 || [47]; PMID 11083633; doi:10.1128/AAC.44.12.3310-3316.2000; 47. Edgerton M. Koshlukova S.E. Araujo M.W. Patel R.C. Dong J. Bruenn J.A. Salivary histatin 5 and human neutrophil defensin 1 kill Candida albicans via shared pathways Antimicrob. Agents Chemother. 2 ||| ref 20 = [20]; PMID 17074797; doi:10.1128/AAC.00478-06; 20. Vylkova S. Nayyar N. Li W. Edgerton M. Human beta-defensins kill Candida albicans in an energy-dependent and salt-sensitive manner without causing membrane disruption Antimicrob. Agents Chemother. ||| ref 24, 62 (HNP-1); 62, 63 (HNP-4); 20 (hBD-2); 12, 20 (hBD-3); 34, 35, 64 cidal and 65, 66 static (lactoferrin) ||| ref 26 (HNP-1); 12 (HNP-4); 11 (hBD-2, hBD-3); 43, 67 (lactoferrin) ||| ref 14 (HNP-1); 23 (HNP-4); Yes 11, 13 / No 20 (hBD-2); No 20 / Yes 11 (hBD-3); 31, 34, 42 (lactoferrin) ||| ... The note with it: Table 2; ref 14 (HNP-1); 23 (HNP-4); 20, 11, 13 (hBD-2); 20, 11 (hBD-3); 36, 44, 31, 42 (lactoferrin); cited from earlier work.

With “HNP-1: human α-defensin, UniProtKB P59665, 30 amino acids, three disulfide bonds; purchased from PeptaNova”, the Cellular target result in series [1] is on record as “PM H^+-ATPase”. Also, the “Cell death type (yeast)” value in series [2] was “ND Permeabilization [14]”.

Turning to “HNP-4: human α-defensin, UniProtKB P12838, 33 amino acids; purchased from PeptaNova (VCSCRLVFCRRTELRVGNCLIGGVSFTYCCTRV; Neutrophil defensin 4; UniProt P12838 64-96, looked up)”, the Cellular target result in series [1] was “PM H^+-ATPase”. In series [2], the “Cell death type (yeast)” value was “ND Permeabilization [23]”.

On to “hBD-3: human β-defensin, UniProtKB Q5U7J2, 45 amino acids; purchased from PeptaNova (GIINTLQKYYCRVRGGRCAVLSCLPKEEQIGKCSTRGRKCCRRKK; Beta-defensin 103; UniProt P81534 23-67, looked up)”, for which the Cellular target entry in series [1] was “PM H^+-ATPase”. The “Cell death type (yeast)” value in series [2] is “ND Permeabilization (No [20]/Yes [11, 20])”.
